PubChem BioAssay AID1259405 – NCATS – 2018

Aim: 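Mouse-designed siRNAs used to find CHO productivity engineering targets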 (primary screen)
Cell system: Chinese hamster CHO-K1 ovary cells with stable secreted eGFP expression
Reagents: single siRNA against mouse genes, 0.8 pmol siRNA per well (2 µl of 400 nM stock)
Time to read-out: 3 days
Read-out: 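Per-well intracellular GFP measured by laser scanning cytometry, plus viability from ATP luminescence, each relative to plate median of non-targeting control wells, in %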
Reading the numbers: GFP, % of control: higher = more GFP per well, higher productivity
Call rule: 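a knock-down is called active if GFP reaches 120% or more of non-targeting control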
Here is an unselected part of about 50,000 reagents. About 4,000 of them (8%) count as active. 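Mouse siRNA library applied to hamster cells; one well for each siRNA.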 The numbers tell different reagents against one gene apart. Further read-outs or replicates are left out here.

GFP, % of control, by gene and reagent
Tefm (transcription elongation factor, mitochondrial): #1 157 active; #2 22.1 inactive; #3 51.1 inactive
Tmem45a2 (transmembrane protein 45A2): #1 56.8 inactive; #2 58.4 inactive; #3 64.8 inactive
Trim24 (tripartite motif-containing 24): #1 59.6 inactive; #2 116 inactive; #3 97.7 inactive
Emcn (endomucin): #1 60.8 inactive; #2 117 inactive; #3 131 active
Ccdc122 (coiled-coil domain containing 122): #1 64.9 inactive; #2 84.9 inactive; #3 129 active
Nup98 (nucleoporin 98): #1 65.8 inactive; #2 37.7 inactive; #3 33.9 inactive
Mab21l2 (mab-21-like 2): #1 76.9 inactive; #2 59.6 inactive; #3 65.3 inactive
Gabarapl1 (GABA type A receptor associated protein like 1): #1 67.8 inactive; #2 105 inactive
Garin3 (golgi associated RAB2 interactor 3): #1 49.9 inactive; #2 34.5 inactive; #3 77.9 inactive
Helq (helicase, POLQ-like): #1 36.4 inactive; #2 57.3 inactive; #3 39.3 inactive
Gm4793 (predicted gene 4793): #1 56.9 inactive; #2 27.1 inactive; #3 57.9 inactive
Stk25 (serine/threonine kinase 25 (yeast)): #1 122 active
Samd7 (sterile alpha motif domain containing 7): #1 29.1 inactive; #2 93 inactive
Myl4 (myosin, light polypeptide 4): #1 38.6 inactive; #2 86.7 inactive; #3 61.5 inactive
Sp3os (trans-acting transcription factor 3, opposite strand): #1 109 inactive; #2 39.3 inactive; #3 135 active
Gspt2 (G1 to S phase transition 2): #1 72.3 inactive; #2 106 inactive; #3 99.2 inactive
Tsr2 (TSR2 20S rRNA accumulation): #1 74 inactive; #2 133 active; #3 96.9 inactive

A few values from the entries so far:
For “GFP, % of control”, Emcn (endomucin) #3 shows 131
Myl4 (myosin, light polypeptide 4) #2, GFP, % of control: 86.7
Value of Mab21l2 (mab-21-like 2) #3 under “Call”: inactive
Entry for Stk25 (serine/threonine kinase 25 (yeast)) under “GFP, % of control”: 122
Tefm (transcription elongation factor, mitochondrial) #2, Call: inactive
Entry of Mab21l2 (mab-21-like 2) #1 in “Call”: inactive

Continued.
GFP, % of control, by gene and reagent
Rps6ka4 (ribosomal protein S6 kinase A4): #1 128 active; #2 121 active; #3 90.1 inactive
Psip1 (PC4 and SFRS1 interacting protein 1): #1 61 inactive; #2 45.8 inactive; #3 74.9 inactive
Trim10 (tripartite motif-containing 10): #1 134 active; #2 80.8 inactive; #3 82.2 inactive
Tmem171 (transmembrane protein 171): #1 97.1 inactive; #2 67.4 inactive
Mief2 (mitochondrial elongation factor 2): #1 34.8 inactive; #2 105 inactive; #3 86.1 inactive
Lpxn (leupaxin): #1 101 inactive; #2 110 inactive
Reps1 (RalBP1 associated Eps domain containing protein): #1 90.2 inactive; #2 194 active; #3 62.5 inactive
Cldn13 (claudin 13): #1 83.9 inactive; #2 58.5 inactive; #3 57.8 inactive
Mcpt4 (mast cell protease 4): #1 46.4 inactive; #2 58 inactive; #3 99.9 inactive
Cpq (carboxypeptidase Q): #1 65.9 inactive; #2 104 inactive; #3 67.5 inactive
Zbtb39 (zinc finger and BTB domain containing 39): #1 61.9 inactive; #2 35.5 inactive; #3 74.2 inactive
Hapln2 (hyaluronan and proteoglycan link protein 2): #1 64.5 inactive; #2 93.8 inactive; #3 80 inactive
Qrfpr (pyroglutamylated RFamide peptide receptor): #1 109 inactive; #2 76 inactive; #3 84.7 inactive
